This passage reports binding results from PMC4338043.

This test has as its target Neisseria meningitidis inosine-5'-monophosphate dehydrogenase (Neisseria meningitidis strain FAM18) (UniProt Q9JZB5). The test is described as follows: AUC; both purified.

No constants are given. Whether binding was seen depends on the method and setting. Some entries that bind do so weakly or less than the wild type.

B1: Neisseria meningitidis inosine-5'-monophosphate dehydrogenase (enzyme, UniProt Q9JZB5 1-487)
chain: MRIVEKAYTFDDVLLVPAHSTVLPRDVKLQTKLTREITLNLPLLSAAMDTVTEARLAISMAQEGGIGIIHKNMPPEMQARAVSKVKRHESGVVKDPVTVAPTTLIREVLEMRAQRKRKMSGLPVVENGKVVGIVTNRDLRFENRVDLPVSAIMTPRERLVTVPEGTSIDEARELMHTHKVERVLVLNEKDELKGLITVKDILKTTEFPNANKDSEGRLRVGAAVGTGGDTEERVKALVEAGVDVIVVDTAHGHSQGVIDRVRWVKETYPHIQVIGGNIATAKAALDLVAAGADAVKVGIGPGSICTTRIVAGVGVPQLTAIHNVAEALKGTGVPLIADGGIRFSGDIAKALAAGAYSVMLGGMFAGTEEAPGEIELYQGRSYKSYRGMGSLGAMSQGSADRYFQDKTDSTDKYVPEGIEGRVPYKGPIVNIIHQLTGGLRSSMGYLGCANIAEMHEKAEFVEITSAGMSESHVHDVQITKEAPNYHR
As for B1, the binding result is on record as “binds”.
